# Screening data, single-dose tests

Measurements from “University of Dundee, Small-Polar-MMV Screening Library” (2021), ChEMBL document CHEMBL3988442.

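Whole-parasite assay of Trypanosoma brucei over 72 hours; the read-out is not stated. Tested at 10 µM. The record gives no direction; compounds that gave an IC50 in retests scored well above the rest, so higher reads as stronger inhibition. Values scatter widely below zero; nearly all retest evidence comes from the higher of the two concentrations used. About 2,700 compounds were tested under these conditions; 0.51% (about 14) showed 50% or more at least once.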

Values are the deposited “Percent Effect”, in %. The controls that fix the scale are not given in the record; negative values are as filed. Compounds were drawn at random from those tested, without regard to their results.

Compound,effect
COc1ccccc1C(C)N(C)Cc1nc2c(cnn2C)c(=O)[nH]1 (stereo not shown),-37.28
CCOc1cccc(C(=O)N2CCC(c3n[nH]c(C4CC4)n3)CC2)c1,14.92
c1cc(CCN2CCN(c3ccc4nncn4n3)CC2)ccn1,-28.51
Cc1cnn(CC2CCCCN2Cc2nnsc2Cl)c1 (stereo not shown),-16.66
N#Cc1ccsc1NC(=O)CCN1CCn2c(nnc2C2CC2)C1,-45.21
c1coc(-c2noc(CN3CCCCC3Cn3cncn3)n2)c1 (stereo not shown),-31.15
CC(NC(=O)NCCCc1n[nH]c(N)c1C#N)c1ccc(F)cc1 (stereo not shown),-3.48
COc1ccc(CC(=O)N2CCCC(n3nc(C)cc3C)C2)cc1 (stereo not shown),-53.72
CCn1ncc2c1CCCC2NCc1ccc2c(c1)CCO2 (stereo not shown),-18.16
COCCOc1cccc(CNC(=O)CN2CCN(C)CC2C)c1 (stereo not shown),-91.67
CCn1ccnc1CN1CCCN(C(=O)COC2CCCCC2)CC1,-1.443
CCc1nc(C2CCCN2C(=O)c2cnns2)no1 (stereo not shown),-68.98
CCc1nc(CN2CCCN(C(=O)c3cnc(C)cn3)CC2)cs1,-109.6
Cc1cc(OCC(=O)NS(=O)(=O)c2cccnc2)ccc1Cl,-71.35
Cc1ccsc1CNC(=O)NC(C)c1ccc2c(c1)CCC(=O)N2 (stereo not shown),-46.88
CN(Cc1ccco1)C(=O)C1CSCN1C(=O)c1cccs1 (stereo not shown),-49.36
COc1ccccc1C(NCc1ccc(SC)cc1)c1nccn1C (stereo not shown),-65.64
O=C(CCc1nccs1)N1CCN(c2ccccn2)CC1,-29.35
CC(C)c1nn(C)c(N(C)C)c1CNCc1ccccc1CO.Cl,-80.92
O=S(=O)(CCCN1CCCC(Cn2cncn2)C1)c1ccccc1 (stereo not shown),-44.59
CC(C)(C)c1n[nH]c(C2CN(C(=O)CCc3ccco3)CCO2)n1 (stereo not shown),-61.06
Cc1ncsc1C(=O)NC1CCN(Cc2cccc3c2OCCO3)CC1,-7.128
O=C(Nc1ccncc1)C1=NN(c2ccccc2)C(=O)CN1,-45.58
CN(C)S(=O)(=O)N(C)C(c1cccc(F)c1)c1ccccn1 (stereo not shown),-52.4
Cc1cnn(CC2CCCN2C(=O)c2cc(O)nc3ccccc23)c1 (stereo not shown),-35.26
CN(Cc1ccco1)C(=O)CN1CCCC1Cn1cncn1 (stereo not shown),-27.5
COc1ccc(CCC(=O)N2CCCCC2Cn2cccn2)cc1F (stereo not shown),-50.73
CCOc1ncccc1NC(=O)NC1CCN(C(=O)C2CC2)CC1,-10.28
CCc1cccc(N2CCC(NC(=O)C3CCOCC3)CC2)c1,-25.13
Cc1nnc(NCc2cccnc2OCC(F)(F)F)c(C#N)c1C,-45.71
c1ccc(-n2cc(CN3CCCCC3Cn3cncn3)nn2)cc1 (stereo not shown),-4.755
Cc1ccccc1CN1CCN(C(C)c2nc(C3CC3)no2)CC1 (stereo not shown),-27.34
CC(NC(=O)NCCCN(C)S(C)(=O)=O)c1ccc(C#N)cc1 (stereo not shown),-6.567